The target in assay [1] is 3xFlag-AR (androgen receptor, co-IP) (human) (UniProt P10275). As to the kind of experiment: co-IP; extracts of 293T cells overexpressing 3xFlag-RIPK1 and 3xFlag-AR, treated with 1 mM DHT (so in the source); IP with anti-AR (C19) or anti-RIPK1 antibody, normal rabbit serum as negative control; immunoblot for AR or RIPK1. For orientation: In western blotting, separated proteins are transferred to a membrane and probed.

Amino acid sequences for entries named in this document (tags omitted).
UniProt P10275: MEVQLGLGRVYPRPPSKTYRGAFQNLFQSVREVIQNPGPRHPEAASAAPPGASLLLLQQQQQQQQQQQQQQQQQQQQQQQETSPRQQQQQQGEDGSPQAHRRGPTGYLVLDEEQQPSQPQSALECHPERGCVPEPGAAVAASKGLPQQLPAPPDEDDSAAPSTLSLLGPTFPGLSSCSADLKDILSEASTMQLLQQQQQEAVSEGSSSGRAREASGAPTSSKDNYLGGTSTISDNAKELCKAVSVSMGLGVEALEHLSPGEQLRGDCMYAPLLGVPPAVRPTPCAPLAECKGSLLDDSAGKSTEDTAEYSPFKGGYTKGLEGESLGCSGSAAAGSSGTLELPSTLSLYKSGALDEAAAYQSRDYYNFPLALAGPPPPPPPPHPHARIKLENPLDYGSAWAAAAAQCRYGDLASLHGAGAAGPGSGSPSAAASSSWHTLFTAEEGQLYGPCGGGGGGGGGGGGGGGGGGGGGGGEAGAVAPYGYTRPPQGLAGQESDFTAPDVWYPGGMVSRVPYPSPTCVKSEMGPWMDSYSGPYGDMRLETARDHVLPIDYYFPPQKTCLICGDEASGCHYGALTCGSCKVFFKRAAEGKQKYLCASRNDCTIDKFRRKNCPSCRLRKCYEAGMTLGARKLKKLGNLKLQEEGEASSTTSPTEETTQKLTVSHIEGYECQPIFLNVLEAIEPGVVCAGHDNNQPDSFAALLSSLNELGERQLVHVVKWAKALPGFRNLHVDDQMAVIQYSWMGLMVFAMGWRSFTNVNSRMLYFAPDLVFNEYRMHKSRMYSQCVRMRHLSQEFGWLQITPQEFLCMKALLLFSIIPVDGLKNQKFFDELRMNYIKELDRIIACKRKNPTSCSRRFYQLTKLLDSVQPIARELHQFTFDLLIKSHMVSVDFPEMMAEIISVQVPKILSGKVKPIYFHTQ
UniProt Q13546: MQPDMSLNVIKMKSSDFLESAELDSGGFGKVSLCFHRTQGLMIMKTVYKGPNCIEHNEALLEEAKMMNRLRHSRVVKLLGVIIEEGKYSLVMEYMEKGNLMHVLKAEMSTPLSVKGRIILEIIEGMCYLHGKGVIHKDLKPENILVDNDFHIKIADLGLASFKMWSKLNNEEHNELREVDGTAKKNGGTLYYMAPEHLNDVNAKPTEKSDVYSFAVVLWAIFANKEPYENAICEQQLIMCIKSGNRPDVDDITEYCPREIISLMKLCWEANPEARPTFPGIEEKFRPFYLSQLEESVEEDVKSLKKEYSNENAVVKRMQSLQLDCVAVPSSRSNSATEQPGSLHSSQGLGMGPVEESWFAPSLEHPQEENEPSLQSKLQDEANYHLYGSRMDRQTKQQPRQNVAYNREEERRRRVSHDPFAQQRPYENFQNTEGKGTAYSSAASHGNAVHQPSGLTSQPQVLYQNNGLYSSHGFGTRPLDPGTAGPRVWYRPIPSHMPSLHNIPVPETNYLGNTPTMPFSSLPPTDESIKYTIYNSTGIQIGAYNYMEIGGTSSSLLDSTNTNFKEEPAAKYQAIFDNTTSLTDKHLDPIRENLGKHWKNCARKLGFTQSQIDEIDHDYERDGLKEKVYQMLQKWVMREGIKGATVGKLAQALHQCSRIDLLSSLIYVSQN

The target in assay [2] is full-length AR (GST pull-down assay) (human) (UniProt P10275). As to the kind of experiment: pull-down; GST pull-down; which partner carried GST and the conditions are not told (refs 8, 16).
The target in assay [3] is VP16-AR (wild-type androgen receptor, pCMX-VP16-AR) (human) (UniProt P10275). The assay is described as follows: two-hybrid; mammalian two-hybrid in PC-3 cells: 350 ng GAL4-DBD fusion, 350 ng VP16-AR, 300 ng pG5-Luc; ethanol, 10 nM DHT, or 0.01-10 µM HWC-489 or LHJ-647 for 16 h.

These are yes or no findings as the source states them, for the method shown. For part of these data: In cells and extracts the contact can be indirect. Some entries that bind do so weakly or less than the wild type.

For “3xFlag-RIPK1 (receptor-interacting protein kinase 1) (from UniProt Q13546 1-671) (enzyme)”, in assay [1], the binding result is listed as “binds”. Take “RIPK1 (as used in the GST pull-down assay) (from UniProt Q13546 1-671) (enzyme)”: the binding entry in assay [2] is “binds”. Consider NTNAFSRLFYPS [#3-18 peptide (No. 12, positive control; GAL4-DBD-3-18)], for which the binding entry in assay [3] is listed as “binds”.

These data come from article PMC5642495, “Characterization of a novel androgen receptor (AR) coregulator RIPK1 and related chemicals that suppress AR-mediated prostate cancer growth via peptide and chemical screening” (Oncotarget, 2017).
